Data source: PubChem BioAssay AID1159508 (Drosophila RNAi Screening Center, 2015)

Assay: 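How silencing genes for RNA-binding proteins changes cellular ATP without other treatment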
System: Drosophila S2R+ cells
Reagents: long dsRNA against Drosophila genes
Duration: 5 days
Measurement: 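Total ATP per well measured by luciferase luminescence after 5 days, expressed as z-scores for each replicate and as their average across up to three replicates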
Reading the numbers: mean ATP z-score and ATP z-score: higher = more total ATP luminescence
Call rule: In these data the active calls have mean ATP z-score at about -2 or lower, or at about 2 or higher
Calls: active = strong ATP change (up or down); inactive = no strong ATP change
The deposit covers 812 reagents; shown is a part drawn at random. 18 of them (2.2%) count as active. 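Calls include both increased and decreased ATP; roughly one in four reagents has no third replicate value.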 Not all columns of the deposit are shown. Reagent sequences are not shown. Not stated in the record: the amount of reagent.

no.	Gene	amplicon	mean ATP z-score	ATP z-score, replicate 1	call
1	Tdrd3 (GeneID 39612)	DRSC38180	-0.516	-0.811	inactive
2	Tdrd3 (GeneID 39612)	DRSC38181	-0.0509	-0.498	inactive
3	su(f) (GeneID 3354994)	DRSC36373	1.35	0.838	inactive
4	su(f) (GeneID 3354994)	DRSC40823	0.968	0.836	inactive
5	Irp-1A (GeneID 42689)	DRSC16719	-0.337	-0.609	inactive
6	Irp-1A (GeneID 42689)	DRSC42649	-0.314	-0.425	inactive
7	RNaseX25 (GeneID 38885)	DRSC29835	0.777	0.332	inactive
8	RNaseX25 (GeneID 38885)	DRSC42384	-0.383	-0.716	inactive
9	Rrp42 (GeneID 36766)	DRSC07161	-0.276	-0.425	inactive
10	Rrp42 (GeneID 36766)	DRSC42675	0.37	-0.293	inactive
11	msi (GeneID 43087)	DRSC17003	2.74	1.9	active
12	msi (GeneID 43087)	DRSC34282	1.19	0.777	inactive
13	swa (GeneID 31580)	DRSC18842	-0.0126	-0.137	inactive
14	swa (GeneID 31580)	DRSC25555	-1.34	-1.38	inactive
15	blanks (GeneID 38620)	DRSC09757	-0.107	-0.574	inactive
16	blanks (GeneID 38620)	DRSC34872	0.235	-0.406	inactive
17	CG7488 (GeneID 41597)	DRSC16250	-0.192	-0.417	inactive
18	CG7488 (GeneID 41597)	DRSC42699	0.506	-0.142	inactive
19	Cpsf6 (GeneID 38937)	DRSC10781	0.715	0.398	inactive
20	Cpsf6 (GeneID 38937)	DRSC34893	2.45	1.55	active
21	mago (GeneID 37402)	DRSC04703	-0.0797	-0.116	inactive
22	mago (GeneID 37402)	DRSC31313	0.517	-0.323	inactive
23	Rb97D (GeneID 43231)	DRSC33092	0.119	-0.298	inactive
24	Rb97D (GeneID 43231)	DRSC33093	0.0307	-0.151	inactive
25	CG34334 (GeneID 5740122)	DRSC20643	0.343	0.12	inactive
26	CG34334 (GeneID 5740122)	DRSC38787	-0.506	-0.809	inactive
27	orb (GeneID 42752)	DRSC34286	-0.46	-1.11	inactive
28	orb (GeneID 42752)	DRSC34287	0.481	-0.0524	inactive
29	nsr (GeneID 37577)	DRSC04427	0.643	-0.198	inactive
30	nsr (GeneID 37577)	DRSC22806	1.08	0.891	inactive
31	x16 (GeneID 33967)	DRSC00960	0.175	-0.136	inactive
32	x16 (GeneID 33967)	DRSC23865	-0.75	-0.708	inactive
33	CG6695 (GeneID 42937)	DRSC16098	-0.36	-0.494	inactive
34	CG6695 (GeneID 42937)	DRSC24623	-0.281	-0.491	inactive
35	CG5800 (GeneID 32742)	DRSC28009	0.0543	-0.786	inactive
36	CG5800 (GeneID 32742)	DRSC35396	0.566	-0.586	inactive
37	eIF4H1 (GeneID 49809)	DRSC20276	0.0825	-0.678	inactive
38	eIF4H1 (GeneID 49809)	DRSC37291	0.828	0.343	inactive
39	Cpsf5 (GeneID 39083)	DRSC10374	0.582	0.459	inactive
40	Cpsf5 (GeneID 39083)	DRSC27451	1.2	0.968	inactive
41	Dp1 (GeneID 37116)	DRSC07403	0.739	0.345	inactive
42	Dp1 (GeneID 37116)	DRSC35700	1.01	0.76	inactive
43	eEF1beta (GeneID 45249)	DRSC24367	-0.642	-0.921	inactive
44	eEF1beta (GeneID 45249)	DRSC42518	0.505	0.207	inactive
45	Srp19 (GeneID 38815)	DRSC11288	1.23	0.988	inactive
46	Srp19 (GeneID 38815)	DRSC24706	-0.195	-0.469	inactive
47	CR31054 (GeneID 12798280)	DRSC22134	0.288	-0.427	inactive
48	CG15014 (GeneID 38533)	DRSC27374	0.0898	-0.474	inactive
49	CG15014 (GeneID 38533)	DRSC34087	0.712	0.176	inactive
50	eIF3k (GeneID 37475)	DRSC27734	0.752	0.543	inactive
51	eIF3k (GeneID 37475)	DRSC32305	-0.434	-0.775	inactive
52	AGO2 (GeneID 39683)	DRSC31769	-1.86	-1.86	inactive
53	AGO2 (GeneID 39683)	DRSC40785	-2.07	-2.04	active
54	Msp300 (GeneID 3771968)	DRSC03370	-0.536	-0.694	inactive
55	Msp300 (GeneID 3771968)	DRSC40679	0.377	0.0507	inactive
56	CG3594 (GeneID 37964)	DRSC21959	-0.332	-0.507	inactive
57	CG3594 (GeneID 37964)	DRSC35710	-0.16	-0.609	inactive
58	Smyd3 (GeneID 44554)	DRSC26723	0.134	-0.034	inactive
59	Smyd3 (GeneID 44554)	DRSC38965	2.52	1.78	active
60	nxf2 (GeneID 39843)	DRSC10403	0.543	0.207	inactive
61	nxf2 (GeneID 39843)	DRSC26721	-0.242	-0.718	inactive

Targets above whose target name starts with R or r (6):
Gene	amplicon	mean ATP z-score	ATP z-score, replicate 1	call
RNaseX25 (GeneID 38885)	DRSC29835	0.777	0.332	inactive
RNaseX25 (GeneID 38885)	DRSC42384	-0.383	-0.716	inactive
Rrp42 (GeneID 36766)	DRSC07161	-0.276	-0.425	inactive
Rrp42 (GeneID 36766)	DRSC42675	0.37	-0.293	inactive
Rb97D (GeneID 43231)	DRSC33092	0.119	-0.298	inactive
Rb97D (GeneID 43231)	DRSC33093	0.0307	-0.151	inactive
